Experiment [1] concerns the target lysine methyltransferase 2A (KMT2A) (human (endogenous in L3.6pl, L3.6sl, A13A)) (UniProt Q03164). The experiment is described as follows: co-IP; endogenous proteins; anti-PHF5A, anti-PHF14 or anti-KMT2A versus control IgG Co-IP from nuclear protein extracts of CSC-enriched tumorspheres (ABCG2+ L3.6pl, ABCG2+ L3.6sl, CD44+ L3.6sl, CD133+ A13A); Protein A/G agarose, western blot.

Amino acid sequences for entries named in this document (tags omitted).
UniProt Q7Z5J4: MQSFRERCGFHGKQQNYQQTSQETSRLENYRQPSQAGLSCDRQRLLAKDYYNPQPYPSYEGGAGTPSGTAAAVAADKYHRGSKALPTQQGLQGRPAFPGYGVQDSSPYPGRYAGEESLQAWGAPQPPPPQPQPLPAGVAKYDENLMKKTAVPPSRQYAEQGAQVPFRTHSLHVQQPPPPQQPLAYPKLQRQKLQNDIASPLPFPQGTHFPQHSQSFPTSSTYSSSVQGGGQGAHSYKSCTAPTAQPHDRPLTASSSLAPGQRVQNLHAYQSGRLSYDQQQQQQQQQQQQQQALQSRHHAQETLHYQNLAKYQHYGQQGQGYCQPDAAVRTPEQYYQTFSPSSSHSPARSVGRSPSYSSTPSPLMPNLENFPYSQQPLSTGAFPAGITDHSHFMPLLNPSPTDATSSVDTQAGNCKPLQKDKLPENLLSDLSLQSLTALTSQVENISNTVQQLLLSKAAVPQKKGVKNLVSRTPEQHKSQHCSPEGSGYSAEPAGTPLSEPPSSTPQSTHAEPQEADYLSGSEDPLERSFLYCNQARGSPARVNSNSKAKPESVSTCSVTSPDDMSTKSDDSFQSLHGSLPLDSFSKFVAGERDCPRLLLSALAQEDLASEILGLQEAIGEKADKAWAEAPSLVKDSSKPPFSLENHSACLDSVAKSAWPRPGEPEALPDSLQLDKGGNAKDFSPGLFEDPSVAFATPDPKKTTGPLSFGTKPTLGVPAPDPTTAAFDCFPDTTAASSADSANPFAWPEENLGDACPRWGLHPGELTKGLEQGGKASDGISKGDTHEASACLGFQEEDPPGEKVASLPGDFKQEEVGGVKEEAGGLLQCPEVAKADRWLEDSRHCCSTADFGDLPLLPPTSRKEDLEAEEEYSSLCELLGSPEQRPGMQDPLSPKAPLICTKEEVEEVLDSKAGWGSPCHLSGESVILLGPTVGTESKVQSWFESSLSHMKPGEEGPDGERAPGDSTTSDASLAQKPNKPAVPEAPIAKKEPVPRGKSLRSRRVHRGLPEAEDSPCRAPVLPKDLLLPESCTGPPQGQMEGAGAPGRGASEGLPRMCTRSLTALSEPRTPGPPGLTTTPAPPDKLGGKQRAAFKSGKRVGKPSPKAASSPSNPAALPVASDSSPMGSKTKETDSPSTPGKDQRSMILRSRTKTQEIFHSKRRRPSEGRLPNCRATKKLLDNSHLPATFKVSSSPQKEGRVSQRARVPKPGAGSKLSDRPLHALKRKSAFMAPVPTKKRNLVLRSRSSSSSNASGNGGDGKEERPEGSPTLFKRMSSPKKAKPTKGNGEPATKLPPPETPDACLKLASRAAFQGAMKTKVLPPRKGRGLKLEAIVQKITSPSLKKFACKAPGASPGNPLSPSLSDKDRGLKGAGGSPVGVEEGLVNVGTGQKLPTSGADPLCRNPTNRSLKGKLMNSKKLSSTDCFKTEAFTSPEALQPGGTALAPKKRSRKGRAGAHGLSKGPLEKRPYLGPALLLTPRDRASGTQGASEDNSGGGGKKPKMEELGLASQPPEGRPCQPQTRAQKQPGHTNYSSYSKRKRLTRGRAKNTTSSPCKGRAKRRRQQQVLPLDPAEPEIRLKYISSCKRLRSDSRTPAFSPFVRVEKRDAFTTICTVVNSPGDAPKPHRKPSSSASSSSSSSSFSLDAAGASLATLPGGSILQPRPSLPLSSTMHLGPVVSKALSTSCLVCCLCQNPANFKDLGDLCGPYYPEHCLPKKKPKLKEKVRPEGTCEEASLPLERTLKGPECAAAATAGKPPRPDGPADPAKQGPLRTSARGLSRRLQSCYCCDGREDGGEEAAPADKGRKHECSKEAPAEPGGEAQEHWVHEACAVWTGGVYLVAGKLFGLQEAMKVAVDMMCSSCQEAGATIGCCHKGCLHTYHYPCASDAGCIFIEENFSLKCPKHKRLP

The target is the same in experiment [2]. In words: co-IP; endogenous proteins; anti-PHF5A Co-IP (L3.6pl, L3.6sl, HPDE6c7) or anti-KMT2A Co-IP (L3.6pl) from nuclear protein extracts of monolayer cultures lacking CSC enrichment; western blot. (In western blotting, separated proteins are transferred to a membrane and probed.)

Here are results for two molecules from paper PMC10502114.

No constants are given. Whether binding was seen depends on the method and setting. Binding seen in cells or lysates may run through a third protein. Some entries that bind do so weakly or less than the wild type.

With “retinoic acid-induced 1 (RAI1) (from UniProt Q7Z5J4 1-1906)”, the binding entry is on record as “binds” in experiment [1] and “no binding (condition: in L3.6pl monolayer cells)” in experiment [2].

B1: PHF14 (protein, UniProt O94880 1-948)
chain: MDRSSKRRQVKPLAASLLEALDYDSSDDSDFKVGDASDSEGSGNGSEDASKDSGEGSCSDSEENILEEELNEDIKVKEEQLKNSAEEEVLSSEKQLIKMEKKEEEENGERPRKKKEKEKEKEKEKEKEKEREKEKEKATVSENVAASAAATTPATSPPAVNTSPSVPTTTTATEEQVSEPKKWNLRRNRPLLDFVSMEELNDMDDYDSEDDNDWRPTVVKRKGRSASQKEGSDGDNEDDEDEGSGSDEDENDEGNDEDHSSPASEGGCKKKKSKVLSRNSADDEELTNDSLTLSQSKSNEDSLILEKSQNWSSQKMDHILICCVCLGDNSEDADEIIQCDNCGITVHEGCYGVDGESDSIMSSASENSTEPWFCDACKCGVSPSCELCPNQDGIFKETDAGRWVHIVCALYVPGVAFGDIDKLRPVTLTEMNYSKYGAKECSFCEDPRFARTGVCISCDAGMCRAYFHVTCAQKEGLLSEAAAEEDIADPFFAYCKQHADRLDRKWKRKNYLALQSYCKMSLQEREKQLSPEAQARINARLQQYRAKAELARSTRPQAWVPREKLPRPLTSSASAIRKLMRKAELMGISTDIFPVDNSDTSSSVDGRRKHKQPALTADFVNYYFERNMRMIQIQENMAEQKNIKDKLENEQEKLHVEYNKLCESLEELQNLNGKLRSEGQGIWALLGRITGQKLNIPAILRAPKERKPSKKEGGTQKTSTLPAVLYSCGICKKNHDQHLLLLCDTCKLHYHLGCLDPPLTRMPRKTKNSYWQCSECDQAGSSDMEADMAMETLPDGTKRSRRQIKEPVKFVPQDVPPEPKKIPIRNTRTRGRKRSFVPEEEKHEERVPRERRQRQSVLQKKPKAEDLRTECATCKGTGDNENLVRCDECRLCYHFGCLDPPLKKSPKQTGYGWICQECDSSSSKEDENEAERKNISQELNMEQKNPKK
B1: the binding result in experiment [1] is listed as “binds”; in experiment [2], “no binding (condition: in L3.6pl monolayer cells)”.
